Record: PubChem BioAssay AID1259295 (Sanger Institute, 2017)
This is an unselected part of 160 reagents. 40 of them (25%) were called active. 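How the synergy score is calculated is not defined; single-siRNA calls need support from other siRNAs and cell lines.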 A number with no mark means an inactive call. The numbers tell different reagents against one gene apart. Further read-outs or replicates are left out here. Not stated in the record: the amount of reagent, the time to read-out.

Purpose: 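Kinase knockdowns that sensitise colorectal cancer cells to BYL719, cetuximab or trametinib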 (secondary deconvolution screen, four single siRNAs per gene)
Cells: human COLO678 colorectal cancer cells
Knock-down reagent: single siRNA against human genes
Conditions: anchor drug BYL719 at 1 µM, cetuximab at 5 µg/ml or trametinib at 10 nM, or DMSO vehicle alone
Measured: 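Viability under vehicle relative to control pool 2 (non-targeting), and knockdown synergy with BYL719 1 µM, cetuximab 5 µg/ml or trametinib 10 nM, as replicate means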
Direction: synergy score with BYL719: higher = stronger combined killing with BYL719; synergy score with cetuximab: higher = stronger combined killing with cetuximab; synergy score with trametinib: higher = stronger combined killing with trametinib
Active means: 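Hit: synergy score over 0.10 with BYL719, cetuximab or trametinib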

For PFKFB3 (6-phosphofructo-2-kinase/fructose-2,6-biphosphatase 3) #1, what was measured?
synergy score with BYL719: -0.138; synergy score with cetuximab: -0.0454; synergy score with trametinib: -0.0763

Which result is listed for PFKFB3 (6-phosphofructo-2-kinase/fructose-2,6-biphosphatase 3) #2?
synergy score with BYL719: -0.0326; synergy score with cetuximab: 0.0299; synergy score with trametinib: 0.013

What did the screen give for PFKFB3 (6-phosphofructo-2-kinase/fructose-2,6-biphosphatase 3) #3?
synergy score with BYL719: -0.152; synergy score with cetuximab: -0.0149; synergy score with trametinib: -0.0598

For PFKFB3 (6-phosphofructo-2-kinase/fructose-2,6-biphosphatase 3) #4, what was measured?
synergy score with BYL719: -0.0843; synergy score with cetuximab: -0.00345; synergy score with trametinib: 0.0401

For KCNH8 (potassium voltage-gated channel subfamily H member 8) #1, what was measured?
synergy score with BYL719: 0.00831; synergy score with cetuximab: -0.00338; synergy score with trametinib: 0.0505

What did the screen give for KCNH8 (potassium voltage-gated channel subfamily H member 8) #2?
synergy score with BYL719: -0.0578; synergy score with cetuximab: 0.078; synergy score with trametinib: 0.0359

Which result is listed for KCNH8 (potassium voltage-gated channel subfamily H member 8) #3?
synergy score with BYL719: -0.0922; synergy score with cetuximab: 0.00525; synergy score with trametinib: -0.103

For KCNH8 (potassium voltage-gated channel subfamily H member 8) #4, how do the results read?
synergy score with BYL719: -0.102; synergy score with cetuximab: 0.0168; synergy score with trametinib: 0.0764

3 successive records already listed:
PFKFB3 (6-phosphofructo-2-kinase/fructose-2,6-biphosphatase 3) #3 — synergy score with BYL719: -0.152; synergy score with cetuximab: -0.0149; synergy score with trametinib: -0.0598
PFKFB3 (6-phosphofructo-2-kinase/fructose-2,6-biphosphatase 3) #4 — synergy score with BYL719: -0.0843; synergy score with cetuximab: -0.00345; synergy score with trametinib: 0.0401
KCNH8 (potassium voltage-gated channel subfamily H member 8) #1 — synergy score with BYL719: 0.00831; synergy score with cetuximab: -0.00338; synergy score with trametinib: 0.0505

Further entries follow.
For SF3B1 (splicing factor 3b subunit 1) #1, what was measured?
synergy score with BYL719: -0.0292; synergy score with cetuximab: -0.0201; synergy score with trametinib: -0.102

For SF3B1 (splicing factor 3b subunit 1) #2, what does the deposit list?
synergy score with BYL719: 0.0044; synergy score with cetuximab: -0.0721; synergy score with trametinib: -0.128

With SF3B1 (splicing factor 3b subunit 1) #3, how do the results read?
synergy score with BYL719: 0.153 (active); synergy score with cetuximab: 0.0681; synergy score with trametinib: 0.112

With SF3B1 (splicing factor 3b subunit 1) #4, what does the deposit list?
synergy score with BYL719: 0.0989; synergy score with cetuximab: 0.0635; synergy score with trametinib: -0.0263

With CDK6 (cyclin dependent kinase 6) #1, how do the results read?
synergy score with BYL719: -0.13; synergy score with cetuximab: -0.142; synergy score with trametinib: -0.0976

With CDK6 (cyclin dependent kinase 6) #2, what was measured?
synergy score with BYL719: -0.0905; synergy score with cetuximab: 0.0335; synergy score with trametinib: -0.0107

For CDK6 (cyclin dependent kinase 6) #3, what does the deposit list?
synergy score with BYL719: -0.171; synergy score with cetuximab: -0.11; synergy score with trametinib: 0.0209

For CDK6 (cyclin dependent kinase 6) #4, what does the deposit list?
synergy score with BYL719: -0.116; synergy score with cetuximab: -0.063; synergy score with trametinib: 0.0899

For PRAG1 (PEAK1 related, kinase-activating pseudokinase 1) #1, what was measured?
synergy score with BYL719: 0.188 (active); synergy score with cetuximab: 0.032; synergy score with trametinib: 0.303

What is on record for PRAG1 (PEAK1 related, kinase-activating pseudokinase 1) #2?
synergy score with BYL719: 0.314 (active); synergy score with cetuximab: 0.13; synergy score with trametinib: 0.261

Which result is listed for PRAG1 (PEAK1 related, kinase-activating pseudokinase 1) #3?
synergy score with BYL719: 0.129 (active); synergy score with cetuximab: -0.0855; synergy score with trametinib: -0.0416

For PRAG1 (PEAK1 related, kinase-activating pseudokinase 1) #4, what does the deposit list?
synergy score with BYL719: -0.00919; synergy score with cetuximab: -0.0768; synergy score with trametinib: 0.0946

For IRAK1 (interleukin 1 receptor associated kinase 1) #1, what was measured?
synergy score with BYL719: 0.138 (active); synergy score with cetuximab: -0.00415; synergy score with trametinib: 0.129

With IRAK1 (interleukin 1 receptor associated kinase 1) #2, how do the results read?
synergy score with BYL719: 0.135 (active); synergy score with cetuximab: -0.0807; synergy score with trametinib: 0.208

With IRAK1 (interleukin 1 receptor associated kinase 1) #3, what does the deposit list?
synergy score with BYL719: 0.0687 (active); synergy score with cetuximab: -0.105; synergy score with trametinib: 0.136

For IRAK1 (interleukin 1 receptor associated kinase 1) #4, what does the deposit list?
synergy score with BYL719: 0.298 (active); synergy score with cetuximab: -0.119; synergy score with trametinib: -0.0524
